Measured values as given in publication doi:10.1101/598128 (bioRxiv, 2019).
Results are given in words; binding and its absence hold for the method and conditions named. For some of these results: Binding seen in cells or lysates may run through a third protein. Some results given as binding are weak or reduced against the parent protein; the word gives no strength. For some of these results: Tags and fused reporters may be left off the sequences shown.

T1: Orc1-TAP (budding yeast) (UniProt P54784)
T1 sequence: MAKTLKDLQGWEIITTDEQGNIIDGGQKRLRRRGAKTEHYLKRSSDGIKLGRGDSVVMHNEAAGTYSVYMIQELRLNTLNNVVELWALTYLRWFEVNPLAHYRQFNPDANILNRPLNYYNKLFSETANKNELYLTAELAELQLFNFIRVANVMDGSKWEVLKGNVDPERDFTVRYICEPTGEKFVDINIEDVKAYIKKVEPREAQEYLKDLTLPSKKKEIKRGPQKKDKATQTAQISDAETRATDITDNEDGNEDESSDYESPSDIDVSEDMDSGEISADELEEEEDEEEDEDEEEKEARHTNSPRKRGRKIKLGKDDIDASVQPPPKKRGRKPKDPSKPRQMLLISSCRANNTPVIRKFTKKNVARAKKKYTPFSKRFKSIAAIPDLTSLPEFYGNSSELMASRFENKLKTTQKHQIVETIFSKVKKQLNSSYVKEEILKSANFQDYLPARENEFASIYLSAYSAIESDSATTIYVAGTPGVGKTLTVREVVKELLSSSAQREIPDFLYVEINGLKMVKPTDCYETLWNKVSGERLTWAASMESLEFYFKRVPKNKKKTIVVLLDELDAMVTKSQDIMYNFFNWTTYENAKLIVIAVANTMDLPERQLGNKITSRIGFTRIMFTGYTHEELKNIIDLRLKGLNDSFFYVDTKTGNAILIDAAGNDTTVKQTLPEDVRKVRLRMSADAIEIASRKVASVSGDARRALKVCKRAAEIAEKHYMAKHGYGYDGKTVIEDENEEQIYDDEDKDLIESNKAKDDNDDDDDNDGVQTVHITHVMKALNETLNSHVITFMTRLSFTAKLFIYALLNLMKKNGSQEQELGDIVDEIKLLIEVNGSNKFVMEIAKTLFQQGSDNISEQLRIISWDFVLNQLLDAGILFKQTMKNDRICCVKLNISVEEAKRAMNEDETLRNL

T2: Orc5-TAP (budding yeast) (UniProt P50874)
T2 sequence: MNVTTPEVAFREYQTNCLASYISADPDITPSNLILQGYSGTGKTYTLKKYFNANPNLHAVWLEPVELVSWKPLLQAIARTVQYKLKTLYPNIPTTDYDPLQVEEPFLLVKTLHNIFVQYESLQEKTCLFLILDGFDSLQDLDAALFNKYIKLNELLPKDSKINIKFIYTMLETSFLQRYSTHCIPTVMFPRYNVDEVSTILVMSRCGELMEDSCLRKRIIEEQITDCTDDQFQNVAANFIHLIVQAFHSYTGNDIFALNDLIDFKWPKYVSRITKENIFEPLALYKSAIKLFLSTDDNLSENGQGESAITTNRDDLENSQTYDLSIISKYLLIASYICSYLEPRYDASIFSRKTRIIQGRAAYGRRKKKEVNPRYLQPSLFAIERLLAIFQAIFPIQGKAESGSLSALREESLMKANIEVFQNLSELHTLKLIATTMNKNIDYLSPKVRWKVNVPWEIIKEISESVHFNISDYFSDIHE

T3: Orc2-TAP (budding yeast) (UniProt P32833)
T3 sequence: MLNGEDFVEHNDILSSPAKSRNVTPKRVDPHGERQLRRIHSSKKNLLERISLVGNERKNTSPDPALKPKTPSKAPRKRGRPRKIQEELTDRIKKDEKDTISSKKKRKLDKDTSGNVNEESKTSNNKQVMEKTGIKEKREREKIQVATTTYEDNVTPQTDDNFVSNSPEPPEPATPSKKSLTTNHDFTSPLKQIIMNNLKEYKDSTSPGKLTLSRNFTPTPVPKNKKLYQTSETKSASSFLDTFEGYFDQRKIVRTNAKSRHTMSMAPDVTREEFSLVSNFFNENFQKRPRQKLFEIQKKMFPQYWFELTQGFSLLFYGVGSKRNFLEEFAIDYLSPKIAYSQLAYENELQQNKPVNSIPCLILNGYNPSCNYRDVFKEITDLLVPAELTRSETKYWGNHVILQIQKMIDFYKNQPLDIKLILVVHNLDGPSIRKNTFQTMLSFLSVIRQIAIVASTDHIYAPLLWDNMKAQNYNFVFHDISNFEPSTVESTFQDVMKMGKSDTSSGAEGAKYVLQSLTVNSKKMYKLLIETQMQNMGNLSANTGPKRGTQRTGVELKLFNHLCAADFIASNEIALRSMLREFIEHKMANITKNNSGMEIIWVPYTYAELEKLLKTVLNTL

T4: His-Orc1 (subunit of the purified His-ORC complex) (budding yeast) (UniProt P54784)
T4 sequence: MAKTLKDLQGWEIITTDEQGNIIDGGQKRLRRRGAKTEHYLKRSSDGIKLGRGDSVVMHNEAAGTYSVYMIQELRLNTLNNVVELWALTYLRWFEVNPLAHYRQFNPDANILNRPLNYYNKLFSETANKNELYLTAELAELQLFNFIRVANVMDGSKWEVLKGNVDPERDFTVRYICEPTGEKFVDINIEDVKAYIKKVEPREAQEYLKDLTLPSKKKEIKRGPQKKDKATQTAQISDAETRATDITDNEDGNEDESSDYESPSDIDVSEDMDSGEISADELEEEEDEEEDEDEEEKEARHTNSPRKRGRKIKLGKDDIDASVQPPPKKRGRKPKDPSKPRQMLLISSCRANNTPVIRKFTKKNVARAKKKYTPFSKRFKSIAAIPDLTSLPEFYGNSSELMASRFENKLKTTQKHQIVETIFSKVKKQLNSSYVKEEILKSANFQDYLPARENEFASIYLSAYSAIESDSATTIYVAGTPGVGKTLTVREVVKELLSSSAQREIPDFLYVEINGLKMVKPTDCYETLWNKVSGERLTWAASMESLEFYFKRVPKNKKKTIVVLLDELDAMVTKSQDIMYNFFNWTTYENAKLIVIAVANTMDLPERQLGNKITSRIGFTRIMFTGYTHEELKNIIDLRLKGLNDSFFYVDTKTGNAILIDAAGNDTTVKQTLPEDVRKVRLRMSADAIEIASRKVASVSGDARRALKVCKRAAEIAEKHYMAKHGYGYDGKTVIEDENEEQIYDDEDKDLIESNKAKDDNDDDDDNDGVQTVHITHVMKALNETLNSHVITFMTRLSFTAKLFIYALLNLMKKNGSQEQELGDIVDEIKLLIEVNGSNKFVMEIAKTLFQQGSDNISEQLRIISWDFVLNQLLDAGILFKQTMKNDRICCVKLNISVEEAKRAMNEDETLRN

T5: Orc2 (subunit of the purified His-ORC complex) (budding yeast) (UniProt P32833)
T5 sequence: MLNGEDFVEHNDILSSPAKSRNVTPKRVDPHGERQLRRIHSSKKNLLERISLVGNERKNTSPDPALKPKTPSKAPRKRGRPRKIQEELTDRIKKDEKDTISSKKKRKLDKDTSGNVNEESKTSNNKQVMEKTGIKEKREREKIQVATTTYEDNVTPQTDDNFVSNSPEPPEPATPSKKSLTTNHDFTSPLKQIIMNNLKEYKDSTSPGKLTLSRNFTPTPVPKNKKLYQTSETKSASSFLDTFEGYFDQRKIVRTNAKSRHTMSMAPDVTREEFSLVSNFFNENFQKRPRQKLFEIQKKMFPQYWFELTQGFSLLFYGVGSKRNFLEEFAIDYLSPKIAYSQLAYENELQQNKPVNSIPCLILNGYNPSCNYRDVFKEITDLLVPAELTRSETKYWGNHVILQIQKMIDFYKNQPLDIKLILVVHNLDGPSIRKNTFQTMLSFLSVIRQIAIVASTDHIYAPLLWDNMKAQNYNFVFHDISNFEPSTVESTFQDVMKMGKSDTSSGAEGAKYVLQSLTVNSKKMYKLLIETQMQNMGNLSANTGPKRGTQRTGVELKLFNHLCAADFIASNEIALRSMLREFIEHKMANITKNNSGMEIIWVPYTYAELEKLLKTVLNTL

T6: Orc3 (subunit of the purified His-ORC complex) (budding yeast) (UniProt P54790)
T6 sequence: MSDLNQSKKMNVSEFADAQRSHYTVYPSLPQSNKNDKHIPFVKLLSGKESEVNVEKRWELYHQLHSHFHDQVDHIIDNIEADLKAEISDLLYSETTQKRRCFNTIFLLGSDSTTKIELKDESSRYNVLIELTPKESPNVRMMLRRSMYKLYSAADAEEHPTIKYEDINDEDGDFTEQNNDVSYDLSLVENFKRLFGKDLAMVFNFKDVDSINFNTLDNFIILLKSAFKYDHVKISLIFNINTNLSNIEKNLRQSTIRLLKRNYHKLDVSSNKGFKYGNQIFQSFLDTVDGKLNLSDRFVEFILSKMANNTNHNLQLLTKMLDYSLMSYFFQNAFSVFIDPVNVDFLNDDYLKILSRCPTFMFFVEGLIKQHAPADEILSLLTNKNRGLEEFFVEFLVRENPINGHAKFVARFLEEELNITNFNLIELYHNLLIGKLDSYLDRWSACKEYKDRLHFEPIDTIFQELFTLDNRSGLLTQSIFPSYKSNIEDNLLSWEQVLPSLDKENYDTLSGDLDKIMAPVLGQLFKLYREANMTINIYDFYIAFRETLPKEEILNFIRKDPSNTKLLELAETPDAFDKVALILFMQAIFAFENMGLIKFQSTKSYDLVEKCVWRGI


Legend:
Orc1-TAP (budding yeast) = molecular target: T1, Orc1-TAP (budding yeast); test: co-IP
Orc5-TAP (budding yeast) = molecular target: T2, Orc5-TAP (budding yeast); test: co-IP
Orc2-TAP (budding yeast) = molecular target: T3, Orc2-TAP (budding yeast); test: co-IP
[1] = molecular target: T4, His-Orc1 (subunit of the purified His-ORC complex) (budding yeast); test: co-purification
[2] = molecular target: T5, Orc2 (subunit of the purified His-ORC complex) (budding yeast); test: cross-linking
[3] = molecular target: T6, Orc3 (subunit of the purified His-ORC complex) (budding yeast); test: cross-linking

Binder	binding (Orc1-TAP (budding yeast))	binding (Orc5-TAP (budding yeast))	binding (Orc2-TAP (budding yeast))	binding [1]	binding [2]	binding [3]
Pch2-E399Q (protein, UniProt P38126 1-564) MSYIVDLQVRGSSLRVIKCMFREDEQISSLHSGSDSKQNSNKKLGEFLNLLKAVVKRKLESFPKDRLKTSIITGQELMREGQGSIEIKDPPTEAQQHLIRSLAKVLLHQFSSINGKVNTVNEGQDNLFLSLFVKKISIEQQSTSHVSIKLNFHEKINLGQHIDSILDSEETNESDTYHMGSVDEFIIYPFCCLEEQDELKNGSILSTEFDKIDLELDEDDGFEGETLNNCINSVGNFDIPLSKQTLNLVNISYLPGTTFEGQWESLYFGNNIKERLYSYATISLKIARFKQTGDSNQEDITTLITNNKLLLVHGPPGTGKTTLCKALCQKLSVRREFSDGSDTIDTNYKGIIIELSCARIFSKWFGESSKNISIVFKDIEELLKVNEGRGIFICLLIDQVEAIASSRTNLSSRNESTDGIRVVNTLLTQLDRLKKYHNFLALATSNLLDSLDDAFVDRADGVFYVGNPTAEGILHILKVCIEEMITSGIILFHARSTGVKFFNKYQDILRKIAIKCSTVDISGRTIRKLPLMCLSEYFRTFPVDDDEFVLALAMSARKLSAARK	binds	binds	binds	–	–	–
Orc3 (subunit of the purified His-ORC complex) (protein, UniProt P54790 1-616) MSDLNQSKKMNVSEFADAQRSHYTVYPSLPQSNKNDKHIPFVKLLSGKESEVNVEKRWELYHQLHSHFHDQVDHIIDNIEADLKAEISDLLYSETTQKRRCFNTIFLLGSDSTTKIELKDESSRYNVLIELTPKESPNVRMMLRRSMYKLYSAADAEEHPTIKYEDINDEDGDFTEQNNDVSYDLSLVENFKRLFGKDLAMVFNFKDVDSINFNTLDNFIILLKSAFKYDHVKISLIFNINTNLSNIEKNLRQSTIRLLKRNYHKLDVSSNKGFKYGNQIFQSFLDTVDGKLNLSDRFVEFILSKMANNTNHNLQLLTKMLDYSLMSYFFQNAFSVFIDPVNVDFLNDDYLKILSRCPTFMFFVEGLIKQHAPADEILSLLTNKNRGLEEFFVEFLVRENPINGHAKFVARFLEEELNITNFNLIELYHNLLIGKLDSYLDRWSACKEYKDRLHFEPIDTIFQELFTLDNRSGLLTQSIFPSYKSNIEDNLLSWEQVLPSLDKENYDTLSGDLDKIMAPVLGQLFKLYREANMTINIYDFYIAFRETLPKEEILNFIRKDPSNTKLLELAETPDAFDKVALILFMQAIFAFENMGLIKFQSTKSYDLVEKCVWRGI	–	–	–	binds	binds	–
Orc5 (subunit of the purified His-ORC complex) (natural protein, budding yeast) MNVTTPEVAFREYQTNCLASYISADPDITPSNLILQGYSGTGKTYTLKKYFNANPNLHAVWLEPVELVSWKPLLQAIARTVQYKLKTLYPNIPTTDYDPLQVEEPFLLVKTLHNIFVQYESLQEKTCLFLILDGFDSLQDLDAALFNKYIKLNELLPKDSKINIKFIYTMLETSFLQRYSTHCIPTVMFPRYNVDEVSTILVMSRCGELMEDSCLRKRIIEEQITDCTDDQFQNVAANFIHLIVQAFHSYTGNDIFALNDLIDFKWPKYVSRITKENIFEPLALYKSAIKLFLSTDDNLSENGQGESAITTNRDDLENSQTYDLSIISKYLLIASYICSYLEPRYDASIFSRKTRIIQGRAAYGRRKKKEVNPRYLQPSLFAIERLLAIFQAIFPIQGKAESGSLSALREESLMKANIEVFQNLSELHTLKLIATTMNKNIDYLSPKVRWKVNVPWEIIKEISESVHFNISDYFSDIHE	–	–	–	binds	–	binds
